Measurements from the supplement of paper PMC10382679.
Single values of this set are uncertain.

B1: Rpb7; numbered along this chain (parent)
chain: MFFIKDLSLNITLHPSFFGPRMKQYLKTKLLEEVEGSCTGKFGYILCVLDYDNIDIQRGRILPTDGSAEFNVKYRAVVFKPFKGEVVDGTVVSCSQHGFEVQVGPMKVFVTKHLMPQDLTFNAGSNPPSYQSSEDVITIKSRIRVKIEGCISQVSSIHAIGSIKEDYLGAI

Key:
[1] = variants of: B1; experiment: log2 fold change of mutant abundance, UV-irradiated vs unirradiated; higher = more UV resistant (enriched after UV); conditions: with Saccharomyces cerevisiae rad7Δ rad26Δ; UV dose (J/m2): 10; genetic background: rad7Δ rad26Δ rpb7Δ + plasmid RPB7 library; outgrowth: 10 cell divisions
[2] = variants of: B1; experiment: NOISeq theta enrichment statistic, UV-irradiated vs unirradiated (dimensionless); higher = more UV resistant (enriched after UV); conditions: with Saccharomyces cerevisiae rad7Δ rad26Δ; UV dose (J/m2): 10; genetic background: rad7Δ rad26Δ rpb7Δ + plasmid RPB7 library; outgrowth: 10 cell divisions

## MFFIKDLSLNITLHPSFFGPRMKQYLKTKLLEEVEGSCTGKFGYILCVLDYDNIDIQRGRILPQDGSAEFNVKYRAVVFKPFKGEVVDGTVVSCSQHGFEVQVGPMKVFVTKHLMPQDLTFNAGSNPPSYQSSEDVITIKSRIRVKIEGCISQVSSIHAIGSIKEDYLGAI [T64Q]
[1]
  log2 fold change of mutant abundance: 0.00212
[2]
  NOISeq theta enrichment statistic: 0.0029

## MFFIKDLSLNITLHPSFFGPRMKQYLKTKLLEEVEGSCTGKFGYILCVLDYDNIDIQRGRILPRDGSAEFNVKYRAVVFKPFKGEVVDGTVVSCSQHGFEVQVGPMKVFVTKHLMPQDLTFNAGSNPPSYQSSEDVITIKSRIRVKIEGCISQVSSIHAIGSIKEDYLGAI [T64R]
[1]
  log2 fold change of mutant abundance: -0.316
[2]
  NOISeq theta enrichment statistic: -0.503

## MFFIKDLSLNITLHPSFFGPRMKQYLKTKLLEEVEGSCTGKFGYILCVLDYDNIDIQRGRILPSDGSAEFNVKYRAVVFKPFKGEVVDGTVVSCSQHGFEVQVGPMKVFVTKHLMPQDLTFNAGSNPPSYQSSEDVITIKSRIRVKIEGCISQVSSIHAIGSIKEDYLGAI [T64S]
[1]
  log2 fold change of mutant abundance: -0.00199
[2]
  NOISeq theta enrichment statistic: -0.0126

## MFFIKDLSLNITLHPSFFGPRMKQYLKTKLLEEVEGSCTGKFGYILCVLDYDNIDIQRGRILPVDGSAEFNVKYRAVVFKPFKGEVVDGTVVSCSQHGFEVQVGPMKVFVTKHLMPQDLTFNAGSNPPSYQSSEDVITIKSRIRVKIEGCISQVSSIHAIGSIKEDYLGAI [T64V]
[1]
  log2 fold change of mutant abundance: -0.066
[2]
  NOISeq theta enrichment statistic: -0.0471

## MFFIKDLSLNITLHPSFFGPRMKQYLKTKLLEEVEGSCTGKFGYILCVLDYDNIDIQRGRILPTAGSAEFNVKYRAVVFKPFKGEVVDGTVVSCSQHGFEVQVGPMKVFVTKHLMPQDLTFNAGSNPPSYQSSEDVITIKSRIRVKIEGCISQVSSIHAIGSIKEDYLGAI [D65A]
[1]
  log2 fold change of mutant abundance: 0.112
[2]
  NOISeq theta enrichment statistic: 0.193

## MFFIKDLSLNITLHPSFFGPRMKQYLKTKLLEEVEGSCTGKFGYILCVLDYDNIDIQRGRILPTCGSAEFNVKYRAVVFKPFKGEVVDGTVVSCSQHGFEVQVGPMKVFVTKHLMPQDLTFNAGSNPPSYQSSEDVITIKSRIRVKIEGCISQVSSIHAIGSIKEDYLGAI [D65C]
[1]
  log2 fold change of mutant abundance: -0.539
[2]
  NOISeq theta enrichment statistic: -0.353

## MFFIKDLSLNITLHPSFFGPRMKQYLKTKLLEEVEGSCTGKFGYILCVLDYDNIDIQRGRILPTEGSAEFNVKYRAVVFKPFKGEVVDGTVVSCSQHGFEVQVGPMKVFVTKHLMPQDLTFNAGSNPPSYQSSEDVITIKSRIRVKIEGCISQVSSIHAIGSIKEDYLGAI [D65E]
[1]
  log2 fold change of mutant abundance: 0.0307
[2]
  NOISeq theta enrichment statistic: 0.157

## MFFIKDLSLNITLHPSFFGPRMKQYLKTKLLEEVEGSCTGKFGYILCVLDYDNIDIQRGRILPTFGSAEFNVKYRAVVFKPFKGEVVDGTVVSCSQHGFEVQVGPMKVFVTKHLMPQDLTFNAGSNPPSYQSSEDVITIKSRIRVKIEGCISQVSSIHAIGSIKEDYLGAI [D65F]
[1]
  log2 fold change of mutant abundance: 0.199
[2]
  NOISeq theta enrichment statistic: 0.124

## MFFIKDLSLNITLHPSFFGPRMKQYLKTKLLEEVEGSCTGKFGYILCVLDYDNIDIQRGRILPTGGSAEFNVKYRAVVFKPFKGEVVDGTVVSCSQHGFEVQVGPMKVFVTKHLMPQDLTFNAGSNPPSYQSSEDVITIKSRIRVKIEGCISQVSSIHAIGSIKEDYLGAI [D65G]
[1]
  log2 fold change of mutant abundance: 0.0295
[2]
  NOISeq theta enrichment statistic: 0.0852
